Results deposited as PubChem BioAssay AID1508588 (Peter MacCallum Cancer Centre, 2020).

- Test: 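Knock-downs boosting vemurafenib effects on melanoma cell growth or lactate release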 (primary screen)
- Cells: human WM266.4 melanoma cells (BRAF V600 mutant)
- Reagents: siRNA pool against human genes, 40 nM
- Timing: 96 h from transfection to read-out
- Conditions: vemurafenib 300 nM (about IC25), added 48 h after transfection, for 48 h; comparison arm got DMSO vehicle only
- Read-out: 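Cell gain (DAPI nuclei at end minus before drug, mean of two replicates) and medium lactate by absorbance per cell, both as ratio to non-targeting siRNA, also grouped into fold-change classes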
- Scale: cell gain with vemurafenib: higher = more cell gain than with non-targeting siRNA; lactate per cell with vemurafenib: higher = more lactate made per cell
- Active means: 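Enhancement is called by pairing each knock-down's vehicle-arm and drug-arm fold-change classes for viability or glycolysis; which class combinations qualify is not given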
- Calls: active = enhances vemurafenib effect; inactive = no enhancement seen
The deposit covers about 18,000 reagents; this is a part drawn at random. Over the whole deposit, 790 (4.4%) were called active. 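Calls rest on a combination of fold-change classes in drug and vehicle arms, not all shown here.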 Entries without a mark were called inactive.

target gene | PubChem SID | cell gain with vemurafenib | lactate per cell with vemurafenib
ODAD2 (outer dynein arm docking complex subunit 2) | SID135622510 | 0.97 | 0.94
GP5 (glycoprotein V platelet) | SID152148495 | 1.07 | 0.92
PRKD3 (protein kinase D3) | SID56478959 | 0.53 | 1.34
SAG (S-antigen visual arrestin) | SID152151211 | 0.28 | 2.42
GLMN (glomulin) | SID152146914 | 0.4 | 0.99
USP7 (ubiquitin specific peptidase 7) | SID152153352 | 0.35 | 1.27
IFNA10 (interferon alpha 10) | SID134323427 | 0.38 | 0.22
RBMS3 (RNA binding motif single stranded interacting protein 3) | SID152152362 | 0.77 | 0.43
RAB3B (RAB3B, member RAS oncogene family) | SID134313678 | 0.38 | 0.76
KLHL41 (kelch like family member 41) | SID134323828 | 0.74 | 0.64
ALX1 (ALX homeobox 1) | SID135622302 | 0.79 | 1.16
CCDC86 (coiled-coil domain containing 86) | SID152152960 | 0.63 | 1.21
FNDC3A (fibronectin type III domain containing 3A) | SID152147733 | 0.69 | 0.8
ZNHIT3 (zinc finger HIT-type containing 3) | SID152147753 | 0.36 | 0.78
ACTB (actin beta) | SID152148908 | 0.62 | 1.25
CCDC93 (CCC complex scaffolding subunit CCDC93) | SID152148988 | 0.32 | 1.45
ATP9A (ATPase phospholipid transporting 9A) | SID152152175 | 0.68 | 0.66
RHOV (ras homolog family member V) | SID135621188 | 0.61 | 0.82
TRIO (trio Rho guanine nucleotide exchange factor) | SID56478974 | 0.59 | 1.05
KCNJ10 (potassium inwardly rectifying channel subfamily J member 10) | SID152155436 | 0.66 | 0.9
LIN28A (lin-28 RNA binding posttranscriptional regulator A) | SID152156650 | 0.42 | 0.98
BHLHE22 (basic helix-loop-helix family member e22) | SID134313886 | 0.69 | 0.55
KLHL1 (kelch like family member 1) | SID135622015 | 0.66 | 0.12
THSD4 (thrombospondin type 1 domain containing 4) | SID152147857 | -0.04 | 3
SRR (serine racemase) | SID134313642 | 0.57 | 1.25
H3C15 (H3 clustered histone 15) | SID135625600 | 1.1 | 0.48
CPNE1 (copine 1) | SID134315879 | 0.46 (active) | 0.23
CEP290 (centrosomal protein 290) | SID152154792 | 1.15 | 0.7
RFPL4A (ret finger protein like 4A) | SID152147538 | 1.02 | 0.73
DGAT2 (diacylglycerol O-acyltransferase 2) | SID134314091 | 0.22 | 1.97
PKD1L2 (polycystin 1 like 2 (gene/pseudogene)) | SID135622521 | 1.11 | 0.56
ZNF22-AS1 (ZNF22 antisense RNA 1) | SID135623180 | 0.66 | 0.69
GTF2A2 (general transcription factor IIA subunit 2) | SID134315303 | 1.39 | 0.52
FABP9 (fatty acid binding protein 9) | SID135625510 | 0.05 | 1.52
